The test system of test [1] is K562 cells. Nature of the test: MTT viability assay, K562 cells. To be noted: exposed to inhibitor for 72 hours. The format is cell-based. On the procedure:
(§1) Given that mutant Flt3 activates cyclin D/CDK4 signaling, the effect of the CDK4 inhibitor arcyriaflavin on the viability of MV4-11 cells was tested. As a control in this experiment, an inhibitor for cyclin A/CDK2 and cyclin E/CDK2 (purvalanol) as well as an inhibitor for cyclin B/CDK1 (alsterpaullone) was included. […] The inhibitors were also tested against EOL-1 cells, which express the mutant fusion kinase FiplL1-PDGFROα and against K562 and BV173 cells (CML cell lines) and THP-1 and U937 cells (AML cell lines). The dilution range of the inhibitors was from 20 μM to 10 nM.
(§2) Viability of the cell lines was determined by an MTT assay, which is based on the reduction of the tetrazolium salt 3, [4,5-dimethylthiazol-2-yl]-2,5-diphenyltetrazolium bromide (MTT). Mitochondrial enzymes associated with metabolic activity reduce MTT to a formazan dye, which can be measured spectrometrically. Cells undergoing apoptosis show reduced metabolic activity resulting in reduced formation of the formazan dye.
(Tetrazolium assays rely on reduction of a dye to a coloured formazan, in cell work by metabolically active cells.)

Test [2] deals with BV173 cells. Nature of the test: MTT viability assay, BV173 cells. In kind it is cell-based. The settings on record: exposed to inhibitor for 72 hours. The method, then:
as §1, §2

Test [3] has as its system EOL-1 cells. To be noted: read-out: Viability (IC50) EOL-1; exposed to inhibitor for 72 hours; MTT. On the procedure: as §1, §2
(§3) The bone marrow environment is known to contain a multitude of cytokines. […] The cell lines were incubated with the appropriate inhibitor in the presence and absence of the cytokines GM-CSF and IL-3 (10 ng/mL each).
(§4) To test the role of MEK in the survival of MV4-11 and EOL-1 cells, a viability assay (48 hour incubation) was performed using U0126 (10 μM), an MEK specific inhibitor (see FIG. 5).

The test system of test [4] is MV4-11 cells. To be noted: read-out: Viability (IC50) MV4-11; exposed to inhibitor for 72 hours; MTT. The method, then:
as §1, §2, §3, §4

Test [5] concerns THP-1 cells. To be noted: read-out: Viability (IC50) THP-1; exposed to inhibitor for 72 hours; MTT. On the procedure: as §1, §2, §3, §4
The test system of test [6] is U937 cells. Nature of the test: MTT viability assay, U937 cells. The format is cell-based. To be noted: exposed to inhibitor for 72 hours. The method, then:
as §1, §2

pIC50: −log10 of the molar value.

Broadly, the pIC50 is the negative decadic logarithm of the IC50, by convention in mol/L. On to `CS(=O)(=O)O.Cc1ccc(NC(=O)c2ccc(CN3CCN(C)CC3)cc2)cc1Nc1nccc(-c2cccnc2)n1` [imatinib, 4-[(4-methyl-1-piperazinyl)methyl]-N-[4-methyl-3-[[4-(3-pyridinyl) -2-pyrimidinyl]amino-phenyl]benzamide methanesulfonate], for which the negative logarithm of the IC50 (pIC50) is 6.52 in test [1]; 6.22 in test [2]; more than 9.00 in test [3]; less than 5.00 in test [4]; less than 5.00 in test [5]; less than 5.00 in test [6].

The values are drawn from patent US20050171182A1, “Methods and compositions for use in the treatment of mutant receptor tyrosine kinase driven cellular proliferative diseases” (priority 2003, published 2005).
